Measurements as given in US6730705B1, “Alkoximino acetic acid amides” (Bayer Aktiengesellschaft, priority 1995, dated 2004).
Some entries share one result that the patent states for a list of compounds. At least one structure is not confirmed: it was looked up by name or label, or the drawing left a doubt.

test system: Plasmopara viticola; test: Plasmopara test (vines)/protective; type: in vivo; settings: protective spray, active compound concentration 100 ppm in the spray liquor, evaluation 6 days after inoculation

SMILES	degree of action
CON=C(C(=O)NCCc1ccc(OC)c(OC)c1)c1ccc(C)cc1 (mixture of isomers) [Compound 41]	more than 80%
CCON=C(C(=O)NCCc1ccc(OC)c(OC)c1)c1ccc(Cl)cc1 (mixture of isomers) [Compound 77]	more than 80%
CO/N=C(/C(=O)NCc1ccc(Cl)cc1)c1ccc(C)cc1C [Compound 2, N-4-chlorophenyl-2-methoximino-2-[2-(2,4-dimethyl)phenyl]-acetamide]	more than 80%
CO/N=C(/C(=O)NCCc1ccc(OC)c(OC)c1)c1ccc(Cl)cc1 [Compound 24]	more than 80%
CO/N=C(/C(=O)NCCc1ccc(OC)c(OC)c1)c1ccc(C)cc1 [Compound 42]	more than 80%
CON=C(C(=O)NCCc1ccc(OC)c(OC)c1)c1ccc(C)s1 [Compound 73]	more than 80%
CCc1ccc(/C(=N\OC)C(=O)NCCc2ccc(OC)c(OC)c2)cc1 [Compound 81]	more than 80%
CCOc1ccc(/C(=N\OC)C(=O)NCCc2ccc(OC)c(OC)c2)cc1 [Compound 82]	more than 80%
CO/N=C(\C(=O)NCCc1ccc(OC)c(OC)c1)c1ccc(C)c(C)c1 [Compound 91]	more than 80%
CO/N=C(/C(=O)NCCc1ccc(OC)c(OC)c1)c1ccc(Br)cc1 [Compound 96]	more than 80%
CO/N=C(/C(=O)NCCc1ccc(OC)c(OC)c1)c1ccc(F)cc1 [Compound 98]	more than 80%
CO/N=C(/C(=O)NCCc1ccc(OC)c(OC)c1)c1ccc(C)c(C)c1 [Compound 99]	more than 80%
CON=C(C(=O)NCCc1ccc(OC)c(OC)c1)c1ccc(Cl)s1 [Compound 103]	more than 80%
CCO/N=C(/C(=O)NCCc1ccc(OC)c(OC)c1)c1ccc(C)cc1 [Compound 110]	more than 80%
CON=C(C(=O)NCCc1ccc(OC)c(OC)c1)c1ccc2c(c1)CCC2 [Compound 114]	more than 80%
CON=C(C(=O)NCCc1ccc(OC)c(OC)c1)c1ccc2c(c1)CCCC2 [Compound 117]	more than 80%
CCON=C(C(=O)NCCc1ccc(OC)c(OC)c1)c1ccc(CC)cc1 [Compound 122]	more than 80%
CCCc1ccc(C(=NOC)C(=O)NCCc2ccc(OC)c(OC)c2)cc1 [Compound 124]	more than 80%
CON=C(C(=O)NCCc1ccc(OC)c(OC)c1)c1ccc(OCc2ccccc2)cc1 [Compound 126]	more than 80%
CCc1ccc(C(=NOC)C(=O)NCCc2ccc(OC)c(OC)c2)s1 [Compound 127]	more than 80%
CCCCc1ccc(C(=NOC)C(=O)NCCc2ccc(OC)c(OC)c2)cc1 [Compound 132]	more than 80%
CON=C(C(=O)NCCc1ccc(OC)c(OC)c1)c1ccc(-c2ccccc2)cc1 [Compound 136]	more than 80%
CON=C(C(=O)NCCc1ccc(OC)c(OC)c1)c1ccc(SC)cc1 [Compound 142]	more than 80%
CCc1ccc(C(=NOC)C(=O)NCCc2ccc(OC)c(OC)c2)cc1CC [Compound 144]	more than 80%
CCON=C(C(=O)NCCc1ccc(OC)c(OC)c1)c1ccc(Br)cc1 [Compound 146]	more than 80%
CON=C(C(=O)NCCc1ccc(OC)c(OC)c1)c1ccc2c(c1)OCO2 [Compound 147]	more than 80%
CCON=C(C(=O)NCCc1ccc(OC)c(OC)c1)c1ccc2c(c1)CCC2 [Compound 170]	more than 80%
CO/N=C(/C(=O)NCCc1ccc(OC)c(OC)c1)c1ccc(C2CCCCC2)cc1 [Compound 171]	more than 80%
CCON=C(C(=O)NCCc1ccc(OC)c(OC)c1)c1ccc2c(c1)CCCC2 [Compound 173]	more than 80%
